Measurements published in the supplement of paper PMC3334620.
Whole data set: some 33,000 sequences, median “E-score (-0.5 to 0.5)” near -0.015, cut for the highest 2% near 0.3. The list shows a part of the results.

biological target: T1, Abf1 (UniProt P14164); assay: PBM E-score (8-mer binding enrichment) (E-score (-0.5 to 0.5)); higher = stronger / more preferred TF binding; conditions: protein concentration: 200 nM; construct: GST-full length
T1 sequence: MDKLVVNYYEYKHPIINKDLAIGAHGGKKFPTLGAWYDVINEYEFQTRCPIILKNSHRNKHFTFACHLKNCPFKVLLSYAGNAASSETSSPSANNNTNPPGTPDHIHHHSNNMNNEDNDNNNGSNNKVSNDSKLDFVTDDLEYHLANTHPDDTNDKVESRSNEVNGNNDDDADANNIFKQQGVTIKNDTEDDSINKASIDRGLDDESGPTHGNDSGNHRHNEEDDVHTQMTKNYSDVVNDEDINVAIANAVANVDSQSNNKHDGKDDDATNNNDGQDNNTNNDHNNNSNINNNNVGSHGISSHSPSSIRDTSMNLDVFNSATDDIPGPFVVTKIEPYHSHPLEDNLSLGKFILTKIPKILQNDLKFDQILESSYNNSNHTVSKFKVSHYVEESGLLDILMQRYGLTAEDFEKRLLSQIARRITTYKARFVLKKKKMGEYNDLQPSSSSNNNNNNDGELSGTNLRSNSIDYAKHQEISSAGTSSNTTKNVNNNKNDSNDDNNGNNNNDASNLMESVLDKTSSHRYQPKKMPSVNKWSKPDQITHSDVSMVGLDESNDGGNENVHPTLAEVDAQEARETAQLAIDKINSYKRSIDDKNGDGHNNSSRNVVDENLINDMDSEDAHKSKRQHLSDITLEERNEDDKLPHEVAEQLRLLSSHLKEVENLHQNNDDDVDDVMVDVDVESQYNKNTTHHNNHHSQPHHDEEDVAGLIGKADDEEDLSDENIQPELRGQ
Protocol: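 Universal 'all 10-mer' protein binding microarrays (Agilent AMADID 015681) probed with GST-tagged S. cerevisiae TFs (full-length or DBD) made by in vitro transcription/translation (PURExpress), about 100-200 nM. Bound TF was detected with fluorescent anti-GST. Each ungapped 8-mer (which stands for itself and its reverse complement) is scored by the PBM enrichment score (E-score), a modified Wilcoxon-Mann-Whitney statistic from -0.5 to +0.5, computed with the Universal PBM Analysis Suite. Scale: above 0.35 generally sequence-specific binding.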

Sequence	PBM E-score
CAAACCAA	0.0789
ACACGCGG	-0.0001
GCTACACC	-0.241
ATATAGCA	0.00804
GCCTGGAA	-0.0478
ACATGTAG	0.0945
CGTTCAGA	0.0456
AGTACAAA	0.101
CGGCGATA	0.235
AAACTGCC	0.0924
CGCTACCC	-0.216
CAACACTG	-0.0999
CGATAACA	0.106
ATGATGCA	0.309
ATTGCATA	-0.0436
ACACAAAT	0.104
AAGCATGG	-0.173
ACTGATAT	0.108
AGCTAACC	-0.227
AACACGAG	0.15
CCGCAGAG	-0.139
AACCGCGC	0.0269
GAAGTTCA	-0.0443
AGGGCCGC	-0.266
AACCAGGT	-0.199

Sequence	PBM E-score
ACTTTCGC	0.046
AGGTGGAG	-0.0877
CGATGCGA	0.0445
CTAGCTAG	-0.0715
GAAACAAA	0.0874
GCTAGTCC	-0.111
AGCGACCT	-0.0649
AATTCTCA	0.0764
AAAGAAAG	0.123
AGACGACC	0.0722
AGCTCTGA	-0.101
AATAGCAT	0.017
CCGGTTGA	-0.124
ATCGTGGC	0.095
TGCAAAAA	0.127
GGGGATTA	-0.0416
ATTTCTCG	0.19
GTACGGAC	0.174
GGCTGCCC	-0.152
GAATTACC	-0.0942
ACGAGCGG	0.0685
AGGAGCGC	-0.0184
GGCTGATA	0.0363
ATCCCGGA	-0.0679
CAACCAGC	-0.239

Taken from above:
Under PBM E-score, AGGTGGAG reads -0.0877
Under PBM E-score, ACTTTCGC reads 0.046

(listing goes on)

Sequence	PBM E-score
AAATGGAT	0.0588
ACAGGGGG	-0.357
GCGCCAGC	-0.233
CGAGTATC	0.0111
CATTTACC	0.0441
CGTTTCAG	0.115
AGCATGAG	-0.00821
ACGTACCC	0.125
CACAGTCA	-0.0568
AATATGTG	0.281
GTGTGGGA	-0.12
CATTCATC	-0.068
CGAAAACG	0.122
TCAGCGGA	-0.033
CGTCAAAG	0.253
CCTTATAA	-0.0107
CGGATGGA	0.0665
AATGATCT	0.324
GCCTTATA	0.0222
AGGATTAT	-0.193
AGCATACC	0.0866
CCAAAAGC	-0.0875
CAGGCATC	-0.0494
ACAGTACC	-0.0206
ATCGAACC	0.0242

Pulled one by one from the entries so far, 5 records:
Sequence	PBM E-score
GTGTGGGA	-0.12
CATTTACC	0.0441
CGGATGGA	0.0665
ACAGTACC	-0.0206
ACGTACCC	0.125

(next part)

Sequence	PBM E-score
ACAACTCG	0.0757
TTCTAGAA	0.0597
ACAACTGG	0.00703
ACGGGTCC	0.142
ATTACCAG	-0.0844
ACATCTCA	0.0619
ACCGCGCG	0.0205
TATCCTGA	0.166
ATAAGACG	0.116
CGTGACTC	-0.0266
GATATCCA	0.233
ATCAAAAA	0.106
CCCTCCAC	-0.185
CAGCAGGG	-0.11
CGTCACAC	0.261
AACATTAG	-0.126
TACAAAAA	0.174
CAGACGGC	0.0713
GCACAGGC	-0.0767
GACGTTGA	0.051
AGCAGGCG	-0.0906
CGGGCCGC	-0.0853
ACGCATGA	0.0377
TGAGCACA	0.0475
CAATTCAC	-0.0392

Sequence	PBM E-score
CCTCACGC	0.00968
ACGTACCT	0.253
CCCCGACA	-0.146
AATTCCGT	0.115
CTCACCAG	-0.101
ACCAAGTC	-0.021
TGCCGCAA	0.0987
CGGTGCAA	-0.0174
AGGAACAT	-0.131
TATGAGAA	0.0987
AGAAACTA	-0.101
CTCAGCTA	-0.184
CAAGTAGC	0.00867
ATAATTCG	0.124
CGTCCACG	0.286
GATCAATA	0.0988
CTAACTGA	0.0393
AGCTTTTA	-0.0137
CGGGCTAC	0.0755
ACGCGAAC	-0.134
GCGACGCA	0.196
TGTACTAA	0.0702
ACCATGGA	-0.0972
CGTGTCTA	0.0948
GCGTGGAC	-0.011

Sequence	PBM E-score
CTCTGGGA	-0.207
AGTCCACC	-0.0728
AGTGGGCA	0.0126
AAGAAGAG	-0.0782
GTGGTCAA	0.0649
GAAATACA	-0.00588
CGAGATAC	0.15
CCCCCGAC	-0.0634
CCTCACCG	-0.0441
GTGTTCAA	0.102
GAGCCAGC	-0.189
ACCGAGGT	-0.113
CGAATAAC	0.122
ACTTTAAA	0.175
AGACGTGG	-0.0183
AGTGCTCA	-0.0111
CTCTCTTA	-0.0765
CGAAGTTA	-0.0442
AAAGCGGC	-0.159
AAGTCCTC	-0.17
CGATTATA	0.218
CAAGCTCA	-0.0752
AGCGGTGG	-0.177
AATCCTGT	0.143
GAATTCGA	-0.0643

Sequence	PBM E-score
CTTATGAC	0.0549
AGCATGTA	0.0385
GCTGAGAA	-0.109
CGTTATTC	0.0363
ACTTTTCC	0.157
AGTGTTCC	0.152
GGGGACCA	-0.106
CCATGCAC	-0.0763
GGTATACC	-0.207
CACCGAGC	-0.0571
TATGAGCA	-0.0345
TGTTGCAA	0.115
ATAGAGAG	-0.213
AACCCAAA	0.0493
ACTAGCTG	0.187
CAGTGACA	0.3
ATATAAAT	0.3
CAAGCCCC	-0.272
GAGCGGCA	-0.039
AGTTAGCG	-0.0148
CCCGCGAC	0.0144
GTAACAGA	0.00642
